PubChem BioAssay AID1259405, NCATS | 2018

Purpose: 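Mouse-designed siRNAs used to find CHO productivity engineering targets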 (primary screen)
System: Chinese hamster CHO-K1 ovary cells with stable secreted eGFP expression
Reagent: single siRNA against mouse genes, 0.8 pmol siRNA per well (2 µl of 400 nM stock)
Time to read-out: 3 days
Read-out: 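Per-well intracellular GFP measured by laser scanning cytometry, plus viability from ATP luminescence, each relative to plate median of non-targeting control wells, in %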
Direction: GFP, % of control: higher = more GFP per well, higher productivity; viability (ATP), % of control: higher = more viable cells (more ATP)
Rule for the call: 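Called active when intracellular GFP, relative to negative control, is at or above 120%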
The deposit covers about 50,000 reagents; this is a random part of them. Over the whole deposit, about 4,000 (8%) got an active call. 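Mouse siRNA library applied to hamster cells; one well for each siRNA.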 A number with no mark means an inactive call. Reagents against one gene are numbered here.

{"Target gene": "Or4a73", "reagent": 1, "GFP, % of control": 119, "viability (ATP), % of control": 100}
{"Target gene": "Or4a73", "reagent": 2, "GFP, % of control": "138 (active)", "viability (ATP), % of control": 78.2}
{"Target gene": "Or4a73", "reagent": 3, "GFP, % of control": 70.2, "viability (ATP), % of control": 90.7}
{"Target gene": "Phc3", "reagent": 1, "GFP, % of control": 107, "viability (ATP), % of control": 108}
{"Target gene": "Phc3", "reagent": 2, "GFP, % of control": 97.4, "viability (ATP), % of control": 82.6}
{"Target gene": "Acot8", "reagent": 1, "GFP, % of control": 79.5, "viability (ATP), % of control": 86.8}
{"Target gene": "Acot8", "reagent": 2, "GFP, % of control": 62.1, "viability (ATP), % of control": 61.8}
{"Target gene": "Acot8", "reagent": 3, "GFP, % of control": 65.6, "viability (ATP), % of control": 101}
{"Target gene": "Dram2", "reagent": 1, "GFP, % of control": 77.5, "viability (ATP), % of control": 96}
{"Target gene": "Dram2", "reagent": 2, "GFP, % of control": 108, "viability (ATP), % of control": 68.6}
{"Target gene": "Dram2", "reagent": 3, "GFP, % of control": 87.5, "viability (ATP), % of control": 62.7}
{"Target gene": "Crh", "reagent": 1, "GFP, % of control": 83.8, "viability (ATP), % of control": 88.8}
{"Target gene": "Crh", "reagent": 2, "GFP, % of control": 107, "viability (ATP), % of control": 94.3}
{"Target gene": "Rab3b", "reagent": 1, "GFP, % of control": 63.4, "viability (ATP), % of control": 83.2}
{"Target gene": "Rab3b", "reagent": 2, "GFP, % of control": 114, "viability (ATP), % of control": 105}
{"Target gene": "Napa", "reagent": 1, "GFP, % of control": 102, "viability (ATP), % of control": 101}
{"Target gene": "Napa", "reagent": 2, "GFP, % of control": 75.8, "viability (ATP), % of control": 70.9}
{"Target gene": "Cited4", "reagent": 1, "GFP, % of control": "151 (active)", "viability (ATP), % of control": 118}
{"Target gene": "Cited4", "reagent": 2, "GFP, % of control": 108, "viability (ATP), % of control": 98.5}
{"Target gene": "Cited4", "reagent": 3, "GFP, % of control": 62.2, "viability (ATP), % of control": 96.1}
{"Target gene": "Dpyd", "reagent": 1, "GFP, % of control": 102, "viability (ATP), % of control": 90.7}
{"Target gene": "Dpyd", "reagent": 2, "GFP, % of control": 64.6, "viability (ATP), % of control": 86.1}
{"Target gene": "Dpyd", "reagent": 3, "GFP, % of control": 86.4, "viability (ATP), % of control": 84.2}
{"Target gene": "Hus1b", "reagent": 1, "GFP, % of control": 58.8, "viability (ATP), % of control": 68.3}
{"Target gene": "Hus1b", "reagent": 2, "GFP, % of control": 112, "viability (ATP), % of control": 125}
{"Target gene": "Hus1b", "reagent": 3, "GFP, % of control": 89.6, "viability (ATP), % of control": 98.3}
{"Target gene": "Clcnka", "reagent": 1, "GFP, % of control": 98.1, "viability (ATP), % of control": 85.7}
{"Target gene": "Clcnka", "reagent": 2, "GFP, % of control": 76.2, "viability (ATP), % of control": 78}
{"Target gene": "Clcnka", "reagent": 3, "GFP, % of control": 60.6, "viability (ATP), % of control": 94}

Records listed so far marked active:
{"Target gene": "Or4a73", "reagent": 2, "GFP, % of control": "138 (active)", "viability (ATP), % of control": 78.2}
{"Target gene": "Cited4", "reagent": 1, "GFP, % of control": "151 (active)", "viability (ATP), % of control": 118}
